{
  "source": "patent US20070088088A1",
  "about": "“Method for preventing or treating metabolic syndrome” (KISSEI PHARMACEUTICAL CO., LTD., priority 2005, published 2007)",
  "key": {"[1]": {"system": "AdipoR1", "test": "AdipoR1 mRNA expression in Hepa1-6 cells (real time quantitative PCR)", "type": "cell-based, murine", "conditions": "100 or 300 μmol/l, 24 hours, versus control group"}, "[2]": {"system": "AdipoR2", "test": "AdipoR2 mRNA expression in Hepa1-6 cells (real time quantitative PCR)", "type": "cell-based, murine", "conditions": "100 or 300 μmol/l, 24 hours, versus control group"}, "[3]": {"system": "AdipoR1", "test": "AdipoR1 mRNA expression in liver and skeletal muscle of db/db mice after repeated administration", "type": "in vivo", "conditions": "oral once a day, 8 weeks, 100 or 300 mg/kg, versus db/db control mice"}, "[4]": {"system": "AdipoR2", "test": "AdipoR2 mRNA expression in liver and skeletal muscle of db/db mice after repeated administration", "type": "in vivo", "conditions": "oral once a day, 8 weeks, 100 or 300 mg/kg, versus db/db control mice"}, "[5]": {"system": "db/db mice", "test": "Improvement of diabetes and hyperlipidemia in db/db mice, 8 weeks repeated administration (Example 3)", "type": "in vivo", "conditions": "for plasma triglyceride concentration: versus control; for diabetes and hyperlipemia of db/db mice: summary of Example 1 to Example 3"}, "[6]": {"system": "db/db mice", "test": "Improvement of diabetes and hyperlipidemia in db/db mice, 8 weeks repeated administration (Example 4)", "type": "in vivo", "conditions": "oral once a day, after 8 weeks, versus db/db control mice"}, "[7]": {"system": "11β-HSD1", "test": "11β-HSD1 mRNA expression in tissues of db/db mice (real time quantitative RT-PCR)", "type": "in vivo", "conditions": "8 weeks repeated oral administration"}, "[8]": {"system": "patients with metabolic syndrome", "conditions": "Tenenbaum et al., Arch Intern Med. 2005; cited from earlier work"}, "[9]": {"conditions": "Mori et al., Endocrine 2004; cited from earlier work"}, "[10]": {"conditions": "Hypertens. Res. 2003; cited from earlier work"}, "[11]": {"conditions": "Example 3, db/db mice, oral once a day, after 8 weeks"}, "[12]": {"conditions": "Example 3, db/db mice, oral once a day, after 8 weeks, versus db/db control mice"}},
  "note": "For at least one compound, name, drawing or mass did not settle the structure.",
  "data": [
    {"smiles": "CC(C)(Oc1ccc(CCNC(=O)c2ccc(Cl)cc2)cc1)C(=O)O", "note": "[bezafibrate]", "values": [
      {"measurement": "AdipoR1 mRNA expression level", "setting": "[1]", "result": "significantly increased"},
      {"measurement": "AdipoR2 mRNA expression level", "setting": "[2]", "result": "significantly increased"},
      {"measurement": "AdipoR1 mRNA expression level in liver", "setting": "[3]", "result": "significantly increased"},
      {"measurement": "AdipoR1 mRNA expression level in skeletal muscle", "setting": "[3]", "result": "significantly increased"},
      {"measurement": "AdipoR2 mRNA expression level in liver", "setting": "[4]", "result": "significantly increased"},
      {"measurement": "AdipoR2 mRNA expression level in skeletal muscle", "setting": "[4]", "result": "significantly increased"},
      {"measurement": "plasma triglyceride concentration", "setting": "[5]; [11]", "result": "significantly reduced"},
      {"measurement": "blood glycated hemoglobin value", "setting": "[5]; [12]", "result": "significantly reduced"},
      {"measurement": "plasma glucose concentration", "setting": "[5]; [12]", "result": "significantly reduced"},
      {"measurement": "diabetes and hyperlipemia of db/db mice", "setting": "[5]", "result": "improved"},
      {"measurement": "glycated hemoglobin value", "setting": "[6]", "result": "significantly reduced"},
      {"measurement": "plasma HDL-cholesterol concentration", "setting": "[6]", "result": "increased"},
      {"measurement": "plasma glucose concentration", "setting": "[6]", "result": "significantly reduced"},
      {"measurement": "plasma triglyceride concentration", "setting": "[6]", "result": "significantly reduced"},
      {"measurement": "expression of 11β-HSD1 in subcutaneous fat", "setting": "[7]", "result": "did not show the effect to suppress"},
      {"measurement": "expression of 11β-HSD1 in the liver", "setting": "[7]; versus db/db control mice", "result": "significantly suppressed"},
      {"measurement": "expression of 11β-HSD1 in the mesenteric fat", "setting": "[7]; versus db/db control mice", "result": "significantly suppressed"},
      {"measurement": "onset of myocardial infarction", "setting": "[8]", "result": "suppresses the onset of myocardial infarction"},
      {"measurement": "plasma adiponectin concentration", "setting": "[9]", "result": "increase"},
      {"measurement": "hypotensive action", "setting": "[10]", "result": "shows a hypotensive action"}
    ]},
    {"smiles": "CC(C)OC(=O)C(C)(C)Oc1ccc(C(=O)c2ccc(Cl)cc2)cc1", "note": "[fenofibrate]", "values": [
      {"measurement": "plasma triglyceride concentration", "setting": "[5]; [11]", "result": "significantly reduced"},
      {"measurement": "diabetes and hyperlipemia of db/db mice", "setting": "[5]", "result": "improved"},
      {"measurement": "glycated hemoglobin value", "setting": "[6]", "result": "significantly reduced"},
      {"measurement": "plasma HDL-cholesterol concentration", "setting": "[6]", "result": "increased"},
      {"measurement": "plasma triglyceride concentration", "setting": "[6]", "result": "significantly reduced"},
      {"measurement": "expression of 11β-HSD1 in subcutaneous fat", "setting": "[7]", "result": "did not show the effect to suppress"},
      {"measurement": "expression of 11β-HSD1 in the liver", "setting": "[7]; versus db/db control mice", "result": "significantly suppressed"},
      {"measurement": "expression of 11β-HSD1 in the skeletal muscle", "setting": "[7]; versus db/db control mice", "result": "significantly suppressed"}
    ]}
  ]
}
